According to publication PMC8033486 (Frontiers in Pharmacology, 2021):

Experiment: in vitro
Settings: African green monkey, CC50, Vero E6, no virus

CC(C)c1c(C(=O)Nc2ccccc2)c(-c2ccccc2)c(-c2ccc(F)cc2)n1CC[C@@H](O)C[C@@H](O)CC(=O)O [Atorvastatin]
CC50 at 3 days: > 20 µM
